Measurements reported in PubChem BioAssay AID1508587 (Peter MacCallum Cancer Centre, 2020)
Purpose: 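Retest of knockdowns boosting BRAF inhibitor action on lactate release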 (follow-up of hits). Cells: human WM266.4 melanoma cells with a BRAF V600 mutation. Reagent: single siRNA against human genes, 25 nM. Time to read-out: 96 h. Conditions: vemurafenib 300 nM (about IC25), given 48 h after transfection for 48 h. Measured: 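Medium lactate read by absorbance over DAPI-counted nuclei; ratio with versus without vemurafenib, set against non-targeting siRNA, averaged over 2 replicates; cell number also recorded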. Reading the numbers: lactate per cell, drug vs no drug: higher = less drug-induced drop in lactate per cell; lactate per cell with vemurafenib: higher = more lactate per cell under drug; lactate per cell without drug: higher = more lactate per cell without drug; cell growth with vemurafenib and cell growth without drug: higher = more cell growth over 48 h. Call rule: 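Enhancer call for any duplex whose drug versus no-drug per-cell lactate ratio is below 0.55 (2 SD beneath non-targeting average); genes confirmed when at least 2 of their 4 duplexes qualify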.
Shown is an unselected part of about 1,600 deposited reagents. 623 of them (39%) were called active. 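Calls are for each duplex; lactate ratios contain extreme outliers.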 Reagents against one gene are numbered here.

| target gene | reagent | lactate per cell, drug vs no drug | lactate per cell with vemurafenib | lactate per cell without drug | cell growth with vemurafenib | cell growth without drug | Call |
| --- | --- | --- | --- | --- | --- | --- | --- |
| PDPK1 (3-phosphoinositide dependent protein kinase 1) | 1 | 0.48 | 0.88 | 1.19 | 0.48 | 0.48 | active |
| PDPK1 (3-phosphoinositide dependent protein kinase 1) | 2 | 0.6 | 0.84 | 0.88 | 0.52 | 0.67 | inactive |
| PDPK1 (3-phosphoinositide dependent protein kinase 1) | 3 | 0.34 | 0.42 | 0.78 | 0.32 | 0.59 | active |
| PDPK1 (3-phosphoinositide dependent protein kinase 1) | 4 | 0.66 | 0.62 | 0.59 | 0.57 | 0.93 | inactive |
| IPO9 (importin 9) | 1 | 0.71 | 1.55 | 1.43 | 0.1 | 0.15 | inactive |
| IPO9 (importin 9) | 2 | 0.53 | 1.14 | 1.41 | 0.14 | 0.22 | active |
| IPO9 (importin 9) | 3 | 0.52 | 0.96 | 1.18 | -0.04 | 0.28 | active |
| IPO9 (importin 9) | 4 | 0.73 | 0.96 | 0.86 | 0.93 | 1.27 | inactive |
| PHACTR3 (phosphatase and actin regulator 3) | 1 | 0.54 | 0.86 | 1.14 | 0.61 | 0.68 | active |
| PHACTR3 (phosphatase and actin regulator 3) | 2 | 0.53 | 1.08 | 1.46 | 0.27 | 0.33 | active |
| PHACTR3 (phosphatase and actin regulator 3) | 3 | 0.57 | 1.8 | 2.27 | 0.13 | 0.18 | inactive |
| PHACTR3 (phosphatase and actin regulator 3) | 4 | 0.62 | 1.1 | 1.28 | 0.8 | 0.59 | inactive |
| GOLGA2 (golgin A2) | 1 | 0.77 | 2.66 | 2.27 | 0.21 | 0.16 | inactive |
| GOLGA2 (golgin A2) | 2 | 0.37 | 0.3 | 0.66 | -0.07 | 0.11 | active |
| GOLGA2 (golgin A2) | 3 | 0.72 | 2.93 | 2.67 | -0.06 | -0.02 | inactive |
| GOLGA2 (golgin A2) | 4 | 0.62 | 1.27 | 1.35 | 0.61 | 0.54 | inactive |
| SPATA31E1 (SPATA31 subfamily E member 1) | 1 | 0.33 | 1.12 | 2.16 | 0.07 | 0.06 | active |
| SPATA31E1 (SPATA31 subfamily E member 1) | 2 | 0.68 | 2.39 | 2.21 | 0.22 | 0.22 | inactive |
| SPATA31E1 (SPATA31 subfamily E member 1) | 3 | 0.5 | 1.25 | 1.56 | 0.44 | 0.25 | active |
| SPATA31E1 (SPATA31 subfamily E member 1) | 4 | 0.83 | 0.91 | 0.7 | -0.01 | 0.36 | inactive |
